Not every detail of the peptide structures is certain; ends, links or a residue may be inferred. Starred links: 1 amine or outer side, 2 acyl side, 3 side chain; linkers in the order of their positions; H or OH if unused. Residues, ends and D or L forms follow the SMILES beside them. Groups on a side chain read outwards from the residue. *: point of attachment. γGlu = O=C(O)[C@H](CCC(=O)[*:2])N[*:1]; Palmitoyl = CCCCCCCCCCCCCCCC(=O)*; AEEA = NCCOCCOCC(=O)O
Target: T1, human GLP-1 receptor (Homo sapiens, UniProt P43220)
T1 construct: expressed in transfected cells; host or cells: BHK cells, clone BHK-467-12A; plasma membrane preparation
Test: Functional receptor assay: cAMP formation in plasma membranes of BHK cells expressing the cloned human GLP-1 receptor (GLP1cAMPma)
Assay type: biochemical
Conditions: membranes with human GLP-1 receptor, mean value, read-out: GLP1cAMPma (3693) [EC50 (nM)] Mean Value
Experimental: The term “insulinotropic agent” as used herein means a compound which is an agonist of the human GLP-1 receptor, i.e. a compound which stimulates the formation of cAMP in a suitable medium containing the human GLP-1 receptor (one such medium disclosed below). The potency of an insulinotropic agent is determined by calculating the EC50 value from the dose-response curve as described below.
The cells were washed twice in phosphate buffered saline and harvested with Versene. Plasma membranes were prepared from the cells by homogenisation with an Ultraturrax in buffer 1 (20 mM HEPES-Na, 10 mM EDTA, pH 7.4). The homogenate was centrifuged at 48,000×g for 15 min at 4° C. The pellet was suspended by homogenization in buffer 2 (20 mM HEPES-Na, 0.1 mM EDTA, pH 7.4), then centrifuged at 48,000×g for 15 min at 4° C. The washing procedure was repeated one more time. The final pellet was suspended in buffer 2 and used immediately for assays or stored at −80° C.
The functional receptor assay was carried out by measuring cyclic AMP (cAMP) as a response to stimulation by the insulinotropic agent. cAMP formed was quantified by the AlphaScreen™ cAMP Kit (Perkin Elmer Life Sciences). […]

Sequences of proteins named here, by UniProt entry; tags and fusion partners are left off. Residues count along the entry.
UniProt P43220, 24-463: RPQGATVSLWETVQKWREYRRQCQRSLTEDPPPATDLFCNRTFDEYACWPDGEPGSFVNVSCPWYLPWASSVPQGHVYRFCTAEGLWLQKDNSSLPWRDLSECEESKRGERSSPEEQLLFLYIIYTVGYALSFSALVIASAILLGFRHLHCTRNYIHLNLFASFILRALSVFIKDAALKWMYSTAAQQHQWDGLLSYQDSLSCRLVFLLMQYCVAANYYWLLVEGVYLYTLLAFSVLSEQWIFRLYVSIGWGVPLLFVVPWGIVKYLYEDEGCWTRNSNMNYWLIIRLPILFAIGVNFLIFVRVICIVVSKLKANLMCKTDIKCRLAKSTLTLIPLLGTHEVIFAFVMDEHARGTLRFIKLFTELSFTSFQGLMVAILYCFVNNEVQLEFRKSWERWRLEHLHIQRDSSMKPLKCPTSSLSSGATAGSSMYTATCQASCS

## CCCCCCCCCCCCCCCC(=O)N[C@@H](CCC(=O)NCCOCCOCC(=O)NCCOCCOCC(=O)NCCCC[C@H](NC(=O)[C@@H](NC(=O)[C@H](C)NC(=O)[C@H](CCC(=O)O)NC(=O)[C@H](CCC(=O)O)NC(=O)[C@H](CCC(=O)O)NC(=O)[C@H](CC(C)C)NC(=O)[C@H](CCC(N)=O)NC(=O)[C@H](CCC(N)=O)NC(=O)[C@H](CO)NC(=O)[C@H](CC(C)C)NC(=O)[C@H](CC(=O)O)NC(=O)[C@H](CO)NC(=O)[C@@H](NC(=O)[C@H](Cc1ccccc1)NC(=O)[C@@H](NC(=O)CNC(=O)[C@H](CCC(=O)O)NC(=O)CNC(=O)[C@@H](N)Cc1c[nH]cn1)[C@@H](C)O)[C@@H](C)O)C(C)C)C(=O)N[C@@H](CC(C)C)C(=O)N[C@@H](Cc1ccccc1)C(=O)N[C@H](C(=O)N[C@@H](CCC(=O)O)C(=O)N[C@@H](Cc1c[nH]c2ccccc12)C(=O)N[C@@H](CC(C)C)C(=O)N[C@@H](CCC(N)=O)C(=O)N[C@@H](CCC(N)=O)C(=O)NCC(=O)NCC(=O)N1CCC[C@H]1C(=O)N[C@@H](CO)C(=O)N[C@@H](CO)C(=O)NCC(=O)N[C@@H](C)C(=O)N1CCC[C@H]1C(=O)N1CCC[C@H]1C(=O)N1CCC[C@H]1C(=O)N[C@@H](CO)C(N)=O)[C@@H](C)CC)C(=O)O [Example 50] (H-HGEGTFTSDLSQQLEEEAVK([AEEA-AEEA-γGlu-Palmitoyl])LFIEWLQQGGPSSGAPPPS-NH2; N-terminus assumed)
  EC50: 0.027 nM

## CCCCCCCCCCCCCCCC(=O)N[C@@H](CCC(=O)NCCOCCOCC(=O)NCCOCCOCC(=O)NCCCC[C@H](NC(=O)[C@@H](NC(=O)[C@H](C)NC(=O)[C@H](CCC(=O)O)NC(=O)[C@H](CCC(=O)O)NC(=O)[C@H](CCC(=O)O)NC(=O)[C@H](CC(C)C)NC(=O)[C@H](CCC(N)=O)NC(=O)[C@H](CCCCN)NC(=O)[C@H](CO)NC(=O)[C@H](CC(C)C)NC(=O)[C@H](CC(=O)O)NC(=O)[C@H](CO)NC(=O)[C@@H](NC(=O)[C@H](Cc1ccccc1)NC(=O)[C@@H](NC(=O)CNC(=O)[C@H](CCC(=O)O)NC(=O)CNC(=O)[C@@H](N)Cc1c[nH]cn1)[C@@H](C)O)[C@@H](C)O)C(C)C)C(=O)N[C@@H](CC(C)C)C(=O)N[C@@H](Cc1ccccc1)C(=O)N[C@H](C(=O)N[C@@H](CCC(=O)O)C(=O)N[C@@H](Cc1c[nH]c2ccccc12)C(=O)N[C@@H](CC(C)C)C(=O)N[C@@H](CCC(N)=O)C(=O)N[C@@H](CCC(N)=O)C(=O)NCC(=O)NCC(=O)N1CCC[C@H]1C(=O)N[C@@H](CO)C(=O)N[C@@H](CO)C(=O)NCC(=O)N[C@@H](C)C(=O)N1CCC[C@H]1C(=O)N1CCC[C@H]1C(=O)N1CCC[C@H]1C(=O)N[C@@H](CO)C(N)=O)[C@@H](C)CC)C(=O)O [Example 49] (H-HGEGTFTSDLSKQLEEEAVK([AEEA-AEEA-γGlu-Palmitoyl])LFIEWLQQGGPSSGAPPPS-NH2; N-terminus assumed)
  EC50: 0.093 nM

From patent publication US9012398B2, “Acylated exendin-4 compounds” (priority 2006, dated 2015)
